What all share (details): 5 µM; treatment: days 7-14 after plating, readout day 21
The subject of assay [1] is hPSC-derived cortical neurons (WA09). The assay can be described thus: nucleus area z-score vs screen plate; higher = larger nuclei (more mature).
The test system is the same in assay [2]. The assay can be described thus: total neurite length per nucleus (MAP2) z-score; higher = more neurite growth.
For assay [3] the test system is unchanged. In words: nucleus roundness z-score vs screen plate; higher = rounder nuclei (more mature).
Assay [4] has the same test system. In words: KCl-induced FOS+/EGR-1+ double-positive nuclei fraction z-score (KCl minus unstimulated); higher = stronger activity-induced IEG response.

Values joined by “and” are separate entries in the source; they are usually repeats but may differ in a detail not shown here. Equal entries are not always repeated. Structures can show the parent of a compound that is named as a salt. The list shows a part of the results. Most values lie at the level of the controls, where differences are scatter.

In turn, `C[C@@]1(C(=O)Nc2ccc(F)nc2)CCCN1c1nc(Nc2cc(C3CC3)n[nH]2)c2cccn2n1` came in with a nucleus area z-score in assay [1] of -13.4. The “total neurite length per nucleus (z-score)” value in assay [2] is -5.55. The same molecule displayed a nucleus roundness z-score in assay [3] of -6.51. Moreover, the “KCl-induced FOS+/EGR-1+ double-positive nuclei fraction z-score” value in assay [4] amounted to 1.93.
The molecule `[O-][n+]1cccc(CO)c1` [Mepiroxol] came in with a nucleus area z-score in assay [1] of 0.234. The “total neurite length per nucleus (z-score)” value in assay [2] was determined as 0.617. The molecule further came in with a nucleus roundness z-score in assay [3] of 0.0698. Moreover, the “KCl-induced FOS+/EGR-1+ double-positive nuclei fraction z-score” value in assay [4] is -0.835.
Consider `C=C[C@]1(C)C[C@@H](OC(=O)CSC(C)(C)CNC(=O)[C@H](N)C(C)C)[C@]2(C)[C@H](C)CC[C@]3(CCC(=O)[C@H]32)[C@@H](C)[C@@H]1O` [Valnemulin HCl], for which, in assay [1], the nucleus area z-score is -0.387. In addition, in assay [2], the “total neurite length per nucleus (z-score)” value amounted to 0.221. In assay [3], this molecule displayed a nucleus roundness z-score of -0.849. In addition, the “KCl-induced FOS+/EGR-1+ double-positive nuclei fraction z-score” value in assay [4] was determined as 0.906.
The like results for `COCCCC/C(=N\OCCN)c1ccc(C(F)(F)F)cc1` [Fluvoxamine maleate] were, in that order, -0.564, 0.438, 0.346 and -0.73.
The like results for `c1ccc2c(-c3cnn4cc(-c5ccc(N6CCNCC6)cc5)cnc34)ccnc2c1` were, in that order, -18.5, -6.15, -10.4 and -0.714.
The matching figures for `O=C1CCC[C@@H]2[C@H]3CCC[N+]4([O-])CCC[C@@H](CN12)[C@@H]34` (stereo partly specified) [Oxymatrine]: 1.32, -0.331, -0.0937 and 0.639.
In assay [1], `c1ccc2[nH]c(-c3cscn3)nc2c1` [Thiabendazole] came in with a nucleus area z-score of 0.329. Moreover, the “total neurite length per nucleus (z-score)” value in assay [2] was -0.299. This molecule also came in with a nucleus roundness z-score in assay [3] of -1.81. The “KCl-induced FOS+/EGR-1+ double-positive nuclei fraction z-score” value in assay [4] was -0.491.
The matching figures for `CC(C)(Sc1cc(C(C)(C)C)c(O)c(C(C)(C)C)c1)Sc1cc(C(C)(C)C)c(O)c(C(C)(C)C)c1` [Probucol]: 0.619, -0.0961, -0.622 and 0.271.
The matching figures for `CCOC(=O)[C@H](CCc1ccccc1)N[C@@H](C)C(=O)N1Cc2cc(OC)c(OC)cc2C[C@H]1C(=O)O` [Moexipril HCl]: -0.0143, -0.485, 0.377 and 0.642.
The matching figures for `CC(C)(Oc1ccc(C2CC2(Cl)Cl)cc1)C(=O)O` (stereo unspecified) [Ciprofibrate]: 0.83, 0.831, -0.131 and 0.607.
Take `C1COC(NC(C2CC2)C2CC2)=N1` [Rilmenidine Phosphate]: the nucleus area z-score in assay [1] amounted to 0.0401. Moreover, the “total neurite length per nucleus (z-score)” value in assay [2] is -0.255. The molecule also had a nucleus roundness z-score in assay [3] of 0.318. Also, the “KCl-induced FOS+/EGR-1+ double-positive nuclei fraction z-score” value in assay [4] is -0.313.
The like results for `COc1ccc(C(=O)NCc2ccc(OCCN(C)C)cc2)cc1OC` [Itopride hydrochloride] were, in that order, -0.0856, 0.52, 1.16 and 0.422.
The matching figures for `CN1CCC(Nc2nc(Nc3ccc(Oc4ccccc4)cc3)c3c(=O)[nH]cc(Br)c3n2)CC1`: -13, -4.32, -3.69 and 1.78.
Regarding `O=C(O)c1cc(-c2ccc(F)cc2F)ccc1O` [Diflunisal], the nucleus area z-score in assay [1] is -0.962. Further, the “total neurite length per nucleus (z-score)” value in assay [2] was -0.247. In assay [3], this molecule registered a nucleus roundness z-score of 0.142. Also, the “KCl-induced FOS+/EGR-1+ double-positive nuclei fraction z-score” value in assay [4] was -0.538.
In assay [1], `c1ccc(NCc2ccc(CNc3ccccn3)cc2)nc1` showed a nucleus area z-score of -1.04. Besides, the “total neurite length per nucleus (z-score)” value in assay [2] worked out at 0.555. This molecule also returned a nucleus roundness z-score in assay [3] of 0.114. The “KCl-induced FOS+/EGR-1+ double-positive nuclei fraction z-score” value in assay [4] was 0.146.
The matching figures for `CC(C)(C)CC(C)(C)c1ccc(OCCOCC[N+](C)(C)Cc2ccccc2)cc1` [Benzethonium Chloride]: -13.4, -4.18, -8.14 and -0.512.
In assay [1], `CN(C)C/C=C/C(=O)Nc1cc2c(Nc3ccc(F)c(Cl)c3)ncnc2cc1O[C@H]1CCOC1` [Afatinib (BIBW2992) Dimaleate] had a nucleus area z-score of -14.5. The “total neurite length per nucleus (z-score)” value in assay [2] was -5.56. In addition, in assay [3], the nucleus roundness z-score was -4.42. Also, the “KCl-induced FOS+/EGR-1+ double-positive nuclei fraction z-score” value in assay [4] is -1.43.
With `O=C(Nc1ccc(OC(F)(F)F)cc1)c1sccc1NCc1ccnc2ccccc12`, in assay [1], the nucleus area z-score is 1.41. Besides, in assay [2], the “total neurite length per nucleus (z-score)” value is 0.783. Moreover, in assay [3], the nucleus roundness z-score turned out to be 1.49. In assay [4], the “KCl-induced FOS+/EGR-1+ double-positive nuclei fraction z-score” value was 4.01.
Take `C[C@@H]1CCN(C(=O)CC#N)C[C@@H]1N(C)c1ncnc2[nH]ccc12`: the nucleus area z-score in assay [1] is 1.27 and 1.84. In addition, the “total neurite length per nucleus (z-score)” value in assay [2] is -0.436 and -0.717.
As for `Cc1ccccc1N1C(=O)c2cc(S(N)(=O)=O)c(Cl)cc2NC1C` (stereo unspecified) [Metolazone], in assay [1], the nucleus area z-score is 0.425. In addition, the “total neurite length per nucleus (z-score)” value in assay [2] turned out to be 0.72. This molecule displayed a nucleus roundness z-score in assay [3] of 0.0121. For the same molecule, the “KCl-induced FOS+/EGR-1+ double-positive nuclei fraction z-score” value in assay [4] worked out at 1.47.
The molecule `CN1CCc2c(c3ccccc3n2Cc2ccc(C(=O)NO)cc2)C1` [Tubastatin A HCl] gave a nucleus area z-score in assay [1] of -0.0416. Further, the “total neurite length per nucleus (z-score)” value in assay [2] was -0.47. Also, the nucleus roundness z-score in assay [3] is 0.36. Further, the “KCl-induced FOS+/EGR-1+ double-positive nuclei fraction z-score” value in assay [4] was -0.583.
`Cc1cc2c(cc1S(N)(=O)=O)S(=O)(=O)CCC2` [Meticrane]: in assay [1], the nucleus area z-score is -0.4. Further, in assay [2], the “total neurite length per nucleus (z-score)” value was -0.098. Also, the nucleus roundness z-score in assay [3] came out at 0.125. In assay [4], the “KCl-induced FOS+/EGR-1+ double-positive nuclei fraction z-score” value is -0.495.
In the case of `CC(=O)c1c(C)c2cnc(Nc3ccc(N4CCNCC4)cn3)nc2n(C2CCCC2)c1=O`, in assay [1], the nucleus area z-score was -1.11 and -1.69.
Take `O=C(NC1CCNCC1)c1n[nH]cc1NC(=O)c1c(Cl)cccc1Cl`: in assay [1], the nucleus area z-score is -16.1 and -15.3. Also, the “total neurite length per nucleus (z-score)” value in assay [2] is -6.63 and -5.68.
In assay [1], `CN(C[C@@H]1COCCO1)S(=O)(=O)Nc1ccc2ccc3ncc(-c4cnn(C)c4)cc3c(=O)c2c1` came in with a nucleus area z-score of 0.883. Also, the “total neurite length per nucleus (z-score)” value in assay [2] was 1.4. In addition, the nucleus roundness z-score in assay [3] is 0.894. For the same molecule, the “KCl-induced FOS+/EGR-1+ double-positive nuclei fraction z-score” value in assay [4] is -0.481.
The molecule `Nc1nc(Cl)nc2c1ncn2[C@H]1C[C@H](O)[C@@H](CO)O1` [Cladribine] gave a nucleus area z-score in assay [1] of -6.83. For the same molecule, the “total neurite length per nucleus (z-score)” value in assay [2] is -2.23. In assay [3], the nucleus roundness z-score is -1.48. Besides, in assay [4], the “KCl-induced FOS+/EGR-1+ double-positive nuclei fraction z-score” value was -0.973.
In turn, `CC[C@H]1OC(=O)[C@H](C)[C@@H](O[C@H]2C[C@@](C)(OC)[C@@H](O)[C@H](C)O2)[C@H](C)[C@@H](O[C@@H]2O[C@H](C)C[C@H](N(C)C)[C@H]2O)[C@](C)(O)C[C@@H](C)[C@@H]2N[C@@H](COCCOC)O[C@H]([C@H]2C)[C@]1(C)O` [Dirithromycin] showed a nucleus area z-score in assay [1] of 1.02. For the same molecule, in assay [2], the “total neurite length per nucleus (z-score)” value is -1.25. For the same molecule, the nucleus roundness z-score in assay [3] was -1.11. Further, the “KCl-induced FOS+/EGR-1+ double-positive nuclei fraction z-score” value in assay [4] was found to be 0.207.
`CN(C)CC(=O)Nc1ccc2[nH]c(=O)c3ccccc3c2c1`: in assay [3], the nucleus roundness z-score is -0.279 and -0.176.
In assay [1], `Nc1ccccc1NC(=O)c1ccc(CNC(=O)OCc2cccnc2)cc1` [Entinostat (MS-275)] displayed a nucleus area z-score of -7.06. In addition, in assay [2], the “total neurite length per nucleus (z-score)” value was -2.72. In assay [3], the nucleus roundness z-score is -2.09. Also, the “KCl-induced FOS+/EGR-1+ double-positive nuclei fraction z-score” value in assay [4] is -0.567.

The values are drawn from the supplement of paper PMC11348887.
